The text below walks through data of the supplement of paper PMC10735217.

This is one part of the list. Single values are uncertain here, since repeats match poorly.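 In a drug-repurposing library screen, luminescence reads luciferase driven by eight TEAD-binding elements, stably integrated into human kidney-derived cells. Compounds scoring over five robust Z scores above the plate mean are called hits.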

In this assay the test system is HEK293A TEAD-LUC reporter. As to the kind of experiment: TEAD-luciferase reporter activity (YAP activation), robust Z score vs plate; higher = stronger YAP/TEAD activation. The conditions noted are these: 24 h. On the technique in general: Reporter assays use an easily measured gene product as a stand-in for the process of interest.

In the case of `CC(C)NCC(O)COc1cccc2c1N(C(=O)c1cccnc1)CCC2` (stereo not drawn) [Nicainoprol], the TEAD-luciferase reporter activity by setting is: (compound concentration: 200 nM) inactive: -0.587; (compound concentration: 2 uM) inactive: 0.304; (compound concentration: 10 uM) inactive: -0.308.
The like results for `OCCC#Cc1nc(-c2ccc(F)cc2)c(-c2ccncc2)n1CCCc1ccccc1` were, in that order, inactive: -4.23, inactive: -2.05 and inactive: 1.28.
For `N=C(NCCCCc1ccc(OCC(O)CO)cc1)NC(=O)c1nc(Cl)c(N)nc1N` (stereo not drawn) the same measures were inactive: -0.795, inactive: -1.17 and inactive: 1.66.
The like results for `CC1=C2[C@H](/C=C(\C)C(=O)O)CC[C@@H](C)[C@H]2CC1` [Valerenic acid] were, in that order, inactive: -0.489, inactive: 0.378 and inactive: -0.213.
Take `CCOC(=O)COc1ccc(/C(C)=N/OCc2sc(-c3ccc(C(F)(F)F)cc3)nc2C)cc1C`: the TEAD-luciferase reporter activity is inactive: -1.16 (compound concentration: 200 nM), inactive: 1.31 (compound concentration: 2 uM) and inactive: -0.428 (compound concentration: 10 uM).
The like results for `CC(=O)NCCC(=O)N[C@@H](Cc1cnc[nH]1)C(=O)O` [N-Acetylcarnosine] were, in that order, inactive: -1.04, inactive: 0.169 and inactive: -0.24.
For `Cc1c(Cl)c(C)[n+]([O-])c(Cl)c1-c1noc(-c2cc(O)c(O)c([N+](=O)[O-])c2)n1` [opicapone] the same measures were inactive: 0.496, inactive: -0.758 and inactive: -0.639.
The like results for `O=C1CCC(c2ccc(-n3ccnc3)cc2)=NN1` [Imazodan] were, in that order, inactive: 0.636, inactive: -0.534 and inactive: 2.97.
As to `CC(=O)N[C@@H](Cc1ccc(C(=N)N)cc1)C(=O)N[C@H](C(=O)N[C@@H](Cc1ccc[n+](C)c1)C(=O)N[C@@H](CC(C)C)C(=O)N1CCC[C@H]1C(N)=O)C1CCCCC1`, the TEAD-luciferase reporter activity is, setting by setting: (compound concentration: 200 nM) inactive: -0.56; (compound concentration: 2 uM) inactive: -0.201; (compound concentration: 10 uM) inactive: -0.318.
The like results for `C[C@@H]1NC(=O)[C@@H]2CCCN2C(=O)[C@H](CC(N)=O)NC(=O)[C@@H]2CSSC[C@H](N)C(=O)N[C@H]3CSSC[C@H](NC1=O)C(=O)NC([C@@H](C)O)C(=O)NCC(=O)N[C@H](C(=O)N[C@@H](Cc1ccc(O)cc1)C(=O)O)CSSC[C@H](NC(=O)[C@H](Cc1ccc(O)cc1)NC(=O)[C@H](CCC(=O)O)NC3=O)C(=O)N2` (stereo partly drawn) [Linaclotide acetate] were, in that order, inactive: 0.0212, inactive: -0.694 and inactive: 1.48.
For `CC[C@H](C)[C@H](NC(=O)[C@H](CCC(=O)O)NC(=O)[C@H](CO)NC(=O)[C@H](CO)NC(=O)[C@@H](NC(=O)[C@H](CC(=O)O)NC(=O)[C@@H](NC(=O)[C@H](C)NC(=O)[C@H](C)NC(=O)[C@H](CC(=O)O)NC(=O)[C@H](CO)NC(C)=O)C(C)C)[C@@H](C)O)C(=O)N[C@H](C(=O)N[C@H](C(=O)N[C@@H](CCCCN)C(=O)N[C@@H](CC(=O)O)C(=O)N[C@@H](CC(C)C)C(=O)N[C@@H](CCCCN)C(=O)N[C@@H](CCC(=O)O)C(=O)N[C@@H](CCCCN)C(=O)N[C@@H](CCCCN)C(=O)N[C@@H](CCC(=O)O)C(=O)N[C@H](C(=O)N[C@H](C(=O)N[C@@H](CCC(=O)O)C(=O)N[C@@H](CCC(=O)O)C(=O)N[C@@H](C)C(=O)N[C@@H](CCC(=O)O)C(=O)N[C@@H](CC(N)=O)C(=O)O)C(C)C)C(C)C)[C@@H](C)O)[C@@H](C)O` [Thymosin alpha 1], the TEAD-luciferase reporter activity is inactive: -0.671 (compound concentration: 200 nM) and inactive: 0.235 (compound concentration: 10 uM).
For `C=C1/C(=C\C=C2/CCC[C@]3(C)[C@@H]([C@H](C)/C=C/[C@H](C)C(C)(C)O)CC[C@@H]23)C[C@@H](O)C[C@@H]1O` [Ercalcitriol], the TEAD-luciferase reporter activity (compound concentration: 200 nM) was inactive: -0.0962, the TEAD-luciferase reporter activity (compound concentration: 2 uM) was inactive: 0.38 and the TEAD-luciferase reporter activity (compound concentration: 10 uM) was inactive: -0.447.
The like results for `COC(=O)C1=COC(C)C2CN3CCc4c([nH]c5ccccc45)C3CC12` (stereo not drawn) were, in that order, inactive: 2.5, inactive: -0.759 and inactive: 2.1.
The like results for `CC(=O)/N=c1/sc(S(N)(=O)=O)nn1C` were, in that order, inactive: 0.506, inactive: -0.235 and inactive: -0.38.
Take `Cc1cccc(/C=N/Nc2cc(N3CCOCC3)nc(OCCc3ccccn3)n2)c1` [Target 16]: the TEAD-luciferase reporter activity is inactive: -2.14 (compound concentration: 200 nM) and inactive: -1.03 (compound concentration: 10 uM).
Consider `Cc1cccc(/C=N/Nc2cc(N3CCOCC3)nc(OCCc3ccccn3)n2)c1` [Apilimod], for which the TEAD-luciferase reporter activity (compound concentration: 2 uM) was inactive: 0.507.
Turning to `NCCCNc1ccc2c(CNCCO)nn3c4c(O)ccc(O)c4c(=O)c1c23`, the TEAD-luciferase reporter activity (compound concentration: 200 nM) was inactive: -1.42, the TEAD-luciferase reporter activity (compound concentration: 2 uM) was inactive: 0.87 and the TEAD-luciferase reporter activity (compound concentration: 10 uM) was active: 5.08.
The like results for `CNCc1ccc(CSCCN/C(=N/S(C)(=O)=O)NCC(O)c2ccc(O)cc2)o1` (stereo not drawn) were, in that order, inactive: -2.36, inactive: 0.941 and inactive: -0.0691.
Consider `COc1cccc(C(=O)NC2CCN(c3ccc4ncc(-c5cccc(C(F)(F)F)c5)n4n3)CC2)c1`, for which the TEAD-luciferase reporter activity was inactive: -1.15 (compound concentration: 200 nM) and inactive: 1.65 (compound concentration: 10 uM).
Take `CC1=C(C(=O)OCOC(=O)C(C)(C)C)N2C(=O)[C@@H](NC(=O)[C@H](N)c3ccccc3)[C@H]2SC1` [cefalexin pivoxil]: the TEAD-luciferase reporter activity is inactive: -2.02 (compound concentration: 200 nM), inactive: -1.01 (compound concentration: 2 uM) and inactive: -1.71 (compound concentration: 10 uM).
As for `CC(n1ccnc1)C(O)(c1ccc(F)cc1)c1ccc(F)cc1` (stereo not drawn), the TEAD-luciferase reporter activity runs as follows: (compound concentration: 200 nM) inactive: 0.37; (compound concentration: 2 uM) inactive: -0.3; (compound concentration: 10 uM) inactive: -0.677.
For the compound `COc1cc(C(=O)NC[C@@H]2CC[C@H]3C[C@@H]2C3(C)C)nc2ccccc12`, the TEAD-luciferase reporter activity is, setting by setting: (compound concentration: 200 nM) inactive: -1.15; (compound concentration: 10 uM) inactive: 4.35.
As for `c1ccc2c(SC3=NCCN3)c[nH]c2c1` [tinazoline], the TEAD-luciferase reporter activity is inactive: -1.62 (compound concentration: 200 nM), inactive: -0.133 (compound concentration: 2 uM) and inactive: 0.0394 (compound concentration: 10 uM).
